From paper PMC5680929 come the findings set out here.

Construct, isoform or probe ends are uncertain for at least one entry. At least one result comes from cells or an extract, where the contact may be indirect.

The target of the data set is BCL6 (human (HK-2 cells)) (UniProt P41182). The data set is described as follows: EMSA supershift. The following applies: anti-BCL6 antibody 2 ug, HK-2 nuclear extract, binding reduced by 100-fold unlabeled probe; EMSA with HK-2 nuclear extract and biotin-labeled probe; pH and temperature not stated; protein in an extract. A general note: Mobility shift assays separate free from complexed probe on a gel.

“CCTTTTTCTGGAGAATGGGG (double strand) [NLRP3 promoter +283/+296 probe]”: the binding result is given as “binds”.
